# Values quoted from earlier work in patent publication US8785500B2, “Intranasal administration of ketamine to treat depression” (priority 2006, dated 2014).
# For at least one compound, name, drawing or mass did not settle the structure.
# Conditions: cited from earlier work
smiles,measurement,value
CN[C@]1(c2ccccc2Cl)CCCCC1=O [S(+)-ketamine],potency relative to racemic,two times more potent than racemic
